PubChem BioAssay AID1259314, Drosophila RNAi Screening Center – 2017

- Assay: 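Genes whose knock-down alters cell survival under toxic manganese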 (primary screen)
- Cell system: Drosophila S2R+ cells
- Reagents: long dsRNA against Drosophila genes
- Duration: 5 days (4 days knock-down, then 1 day metal exposure)
- Treatment: manganese chloride added to 15 mM for 24 hours
- Measurement: 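Cellular ATP measured by luciferase light, scaled to the plate mean, averaged across replicates and z-scored over plates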
- Scale: mean ATP z-score: higher = more ATP than the plate average, more viable cells under manganese
- Hit rule: 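Called active when the mean ATP z-score is above 1.5 or below -1.5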
- Calls: active = strong ATP change, up or down; inactive = no strong ATP change
Shown is an unselected part of about 3,100 reagents tested. 289 of them (9.3%) were called active. 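Active includes both higher and lower ATP than plate average; check the z-score sign for direction.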 A number with no mark means an inactive call. Reagent sequences are not shown. Not stated in the record: the amount of reagent.

predicted target | DRSC id | mean ATP z-score
CG5104 | DRSC11765 | 0.756
CG5104 | DRSC39641 | 2.83 (active)
CG8086 | DRSC03078 | -0.678
CG8086 | DRSC03079 | 0.34
CG8086 | DRSC27677 | 0.795
Gr77a | DRSC11446 | -0.515
Gr77a | DRSC26808 | 1.15
GABA-B-R3 | DRSC00561 | -0.607
GABA-B-R3 | DRSC29404 | 0.871
CG13810 | DRSC22838 | 0.157
CG13810 | DRSC27859 | -0.0554
CG6006 | DRSC13137 | 0.928
CG6006 | DRSC15946 | -0.114
CG13077 | DRSC02181 | 1.52 (active)
CG13077 | DRSC39515 | -0.756
Nup154 | DRSC26396 | -0.891
Corin | DRSC28927 | -0.13
Corin | DRSC39613 | -0.24
xit | DRSC18364 | -0.247
xit | DRSC39724 | -0.0791
Gr36a | DRSC22663 | 0.466
Gr36a | DRSC27724 | -0.451
CG7970 | DRSC08605 | 2.11 (active)
CG7970 | DRSC26090 | 0.414
CG5687 | DRSC08568 | -1.36
CG5687 | DRSC39621 | 0.0772
KdelR | DRSC03353 | 1.4
Or23a | DRSC00767 | 0.449
Or23a | DRSC39706 | 1.07
CG17036 | DRSC02564 | 0.843
CG17036 | DRSC28145 | 0.0536
sing | DRSC19530 | 0.159
sing | DRSC39652 | -0.615
CG1907 | DRSC15399 | 1.33
Msp300 | DRSC00856 | 1
Msp300 | DRSC00858 | -0.433
Msp300 | DRSC03369 | 0.279
Msp300 | DRSC03370 | 1.13
CG31321 | DRSC13028 | -0.442
CG31321 | DRSC27335 | -0.258
Tom20 | DRSC10899 | -0.31
Hacd2 | DRSC03181 | -1
Vha100-5 | DRSC02175 | -0.184
Vha100-5 | DRSC26439 | 0.44
Syb | DRSC07559 | -1.41
Syb | DRSC25904 | 0.312

Targets listed so far whose target name starts with M or m:
predicted target | DRSC id | mean ATP z-score
Msp300 | DRSC00856 | 1
Msp300 | DRSC00858 | -0.433
Msp300 | DRSC03369 | 0.279
Msp300 | DRSC03370 | 1.13
